PubChem BioAssay AID2685 (National Center for Advancing Translational Sciences (NCATS), 2010)
This is one part of the list. The main result of the screen is listed elsewhere. These columns were measured beside it and carry no call. The list favours compounds with an active or inconclusive main result. Words in brackets tell the shape of the fitted curve; partial curves, single points and poor fits give uncertain potencies.

Assay: qHTS Assay for Lipid Storage Modulators in Drosophila S3 Cells;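 for cell number change: cells counted by Cell Tracker Red CMTPX staining in the red channel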
Settings: BODIPY lipid droplet fluorescence, 18-24 h; for cell number change: measured here: cell count max response, cells fed with added oleic acid
How it was run: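 Drosophila S3 cells got compounds at several concentrations plus oleic acid (400 uM solution). Laser-scanning cytometry with 488 nm excitation read lipid droplets at 500-530 nm and cells at 575-640 nm. Percent activity was relative to 20 uM Triacsin C.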

[1] = measured here: cell number channel AC50, cells fed with added oleic acid
[2] = measured here: lipid fluorescence (Fed channel) AC50, cells fed with added oleic acid

Compound | cell number change [%] | AC50 [1] | AC50 [2]
COc1ccc(-n2c(=S)[nH]c3c(oc4ccccc43)c2=O)cc1 | 40.4 | 25.9 µM [rising, single point] | 11.6 µM [rising, partial curve, poor fit]
Cc1ccc(O)c(/C=N/NC(=O)c2[nH]ncc2Br)c1 | 13.5 |  | 
Cc1cc(F)ccc1S(=O)(=O)Nc1ncnc2sccc12 | -9.49 | 0.00461 µM [rising, full curve, poor fit] | 
CC(=O)c1ccc(C(=O)Nc2sc3c(c2C(N)=O)CCN(Cc2ccccc2)C3)cc1 | 97.4 | 29.1 µM [rising, partial curve, poor fit] | 8.2 µM [falling, partial curve]
O=C(CNS(=O)(=O)c1c(F)cc(F)cc1Br)OCC(=O)N1CCCC1=O | -4.81 |  | 29.1 µM [rising, single point]
CCCCC1(C(=O)OCC)CC(CN2CCOCC2)OC1=O (stereo not drawn) | -0.431 |  | 5.17 µM [falling, partial curve]
Cc1nc(Cl)c2oc3ccccc3c2n1 | -85.7 | 4.61 µM [falling, full curve] | 3.26 µM [falling, full curve]
O=C(CCN1C(=O)/C(=C/c2cccs2)SC1=S)Nc1ccc(O)cc1 | 182 | 25.9 µM [rising, partial curve] | 0.116 µM [rising, single point]
COc1cc(OC)cc(C(=O)NCCSc2c[nH]c3ccccc23)c1 | -12.7 |  | 
CSc1ccc(/C=N/NC(=O)COc2ccc(Br)cc2Cl)cc1 | -56.3 | 14.6 µM [falling, partial curve, poor fit] | 1.84 µM [falling, partial curve, poor fit]
O=C1CCC(=O)N1c1ccccc1-c1ccccc1 | -10.5 |  | 23.1 µM [falling, single point]
CCN(CC)S(=O)(=O)c1ccc(N2CCN(CCOc3ccc(OC)cc3)CC2)nc1 | 33.9 |  | 
COc1cc2c(cc1NC(=O)CSc1nnc(Cc3cccs3)n1C)oc1ccccc12 | 51.5 | 9.2 µM [rising, partial curve] | 16.4 µM [rising, partial curve, poor fit]
COC(=O)/N=C(/Cc1ccc(OC)cc1)c1ccc(OC)cc1 | 12.9 |  | 3.26 µM [rising, single point]
O=C(Cn1cnc2c(oc3ccccc32)c1=O)c1ccccc1 | 37.2 | 14.6 µM [rising, partial curve] | 
O=C(COC(=O)c1cnccn1)c1ccc(-c2ccccc2)cc1 | 2.5 |  | 
Cn1c(N)c(C(=O)COC(=O)Cc2ccc(F)cc2)c(=O)n(C)c1=O | 97 |  | 
Cc1ccc(Cn2c(CN3CC(C)OC(C)C3)nc3c2c(=O)[nH]c(=O)n3C)cc1 (stereo not drawn) | 20.9 | 0.13 µM [rising, full curve, poor fit] | 0.146 µM [rising, full curve, poor fit]
CCOc1cc(-c2c(C#N)c(N)nc3c2CCCC3C)ccc1O (stereo not drawn) | -24.1 |  | 1.84 µM [rising, full curve, poor fit]
O=C(c1cc2ccccc2c(=O)o1)N1CCc2ccccc2C1 | 19 |  | 0.0731 µM [rising, full curve, poor fit]

Compound | cell number change [%] | AC50 [1] | AC50 [2]
CC(C)NCCOCCOc1ccccc1F | -38 | 10.3 µM [falling, partial curve, poor fit] | 18.4 µM [falling, partial curve]
C/C(CC(=O)Nc1ccc(N(C)C)cc1)=N\NC(=O)c1ccccn1 | 0.774 |  | 5.8 µM [falling, partial curve]
CCOC(=O)c1c(NC(=O)CSc2nnnn2C)sc(CC)c1C | 17.1 | 1.03 µM [rising, full curve, poor fit] | 
O=C(Cc1cccs1)N(c1ccc(Br)cc1)C1C=CS(=O)(=O)C1 (stereo not drawn) | -11.3 |  | 0.517 µM [falling, full curve, poor fit]
CN(C)c1ccc(/C=N\NC(=O)c2csnn2)cc1 | 13.8 |  | 
Cc1ccc(C(=O)Nc2ccc(S(=O)(=O)Nc3ncccn3)cc2)cc1[N+](=O)[O-] | 11.1 |  | 
O=C(Nc1ccccc1N1CCCCC1)c1ccc(F)cc1 | 22.3 | 2.91 µM [rising, single point] | 
O=C(NCCCN1CCCC1)c1ccc(CS(=O)(=O)c2ccc(Br)cc2)o1 | 2.76 |  | 
COC(=O)CSc1nc2c(c(-c3ccc(C)o3)c1C#N)CCCC2 | 31.6 | 1.84 µM [rising, full curve] | 
O=C(CCC(=O)OCC(=O)c1ccc([N+](=O)[O-])cc1)NC1CCCCC1 | -45.3 | 0.092 µM [falling, full curve] | 
O=C(Nc1ccc2nn(-c3ccccc3)nc2c1)c1ccco1 | -54.7 | 16.4 µM [falling, partial curve] | 18.4 µM [falling, partial curve]
CC(C(=O)Nc1cccnc1)c1ccc([N+](=O)[O-])cc1 (stereo not drawn) |  |  | 29.1 µM [rising, single point]
COC(=O)C1=C(C)NC(=S)NC1c1ccc(OCC(=O)N2CC(C)OC(C)C2)c(OC)c1 (stereo not drawn) | -2.89 |  | 
Cc1ccc(S(=O)(=O)C(C#N)c2nc3ccccc3nc2OCCO)cc1 (stereo not drawn) | -15.6 |  | 18.4 µM [falling, single point]
Cn1nc(C(=O)NC(C)(C)C)c2ccccc21 | 9.09 |  | 20.6 µM [rising, partial curve]
Cc1cc(C)c(C#N)c(OCC(=O)c2ccc(Br)cc2)n1 | 25.3 |  | 29.1 µM [rising, partial curve]
O=C(N1CCN(c2ccccn2)CC1)C(Cl)(Cl)Cl | 3.5 |  | 18.4 µM [falling, partial curve, poor fit]
CC1CCCCC1NC(=O)C1CCN(C(=O)NC2CCCCC2)CC1 (stereo not drawn) | -76.9 | 29.1 µM [falling, single point] | 29.1 µM [falling, single point]
O=C(O)c1cccc(Cn2c(Cl)c(/C=N/NC(=O)c3ccc(O)cc3)sc2=O)c1 | 41.7 | 18.4 µM [rising, single point] | 

Some of the entries so far, as labelled records.
O=C(CCC(=O)OCC(=O)c1ccc([N+](=O)[O-])cc1)NC1CCCCC1
  cell number change [%]: -45.3; AC50 [1]: 0.092 µM [falling, full curve]
O=C(Nc1ccc2nn(-c3ccccc3)nc2c1)c1ccco1
  cell number change [%]: -54.7; AC50 [1]: 16.4 µM [falling, partial curve]; AC50 [2]: 18.4 µM [falling, partial curve]
